Results taken from PubChem BioAssay AID1347075 (National Center for Advancing Translational Sciences (NCATS), 2019).
The whole screen tested about 400,000 compounds, of which about 5,500 (1.4%) were called active. Inconclusive results, whose numbers are uncertain, are shown with a selection of clear calls. The call rests on the fitted dose curve; in most records, active means well fitted cell-killing curve with a large enough effect; inconclusive means small, poorly fitted or top-dose-only effect, or effect the other way; inactive means flat fitted curve, though single readings scatter. A potency beside an inconclusive call is a rough fit, not a confirmed value.

assay: qHTS assay for MDR1-selective chemotherapeutics: Primary screen using the parental adenocarcinoma cell KB-3-1; details: KB-3-1 viability, CellTiter-Glo ATP luminescence, 72 h; activity change, negative = cytotoxic: at 46.1 µM (top of the series); further: nearly all actives have a fitted effect of over 60% in size
In short: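 Cytotoxicity in the drug-sensitive parental line KB-3-1 was scored as loss of CellTiter-Glo luminescence following 72 h incubation with compound. Values come from curve fitting of normalized concentration-response data.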
On the % scale 0 is the no-effect control and ±100 the full control effect; potency means the concentration at half of the fitted maximal effect.

SMILES	Potency	activity change, negative = cytotoxic
CCOc1ccc(Br)cc1CSC(=N)N	active: 23.1 µM	
O=C(CCC(=O)NNC(=O)COc1ccc(Br)cc1Br)NCc1ccccc1		inconclusive: 1.6%
Cc1cccc(S(=O)Cc2ccc(C(=O)N3CCOCC3)o2)c1 (configuration not stated)	inactive	
CC(C)C[C@H]1CN([C@@H](CC(C)C)CN2CCC[C@@H]2CN2C(=S)NC[C@@H]2Cc2ccc(O)cc2)C(=S)N1CC1CCCCC1	inconclusive: 29.1 µM [cytotoxic, single point]	
Cc1cccc2cc(CN(Cc3ccco3)C(=O)c3ccco3)c(=O)[nH]c12	inactive	
COc1cccc(/C=N/NC(=O)CNC(=O)COc2cccc(C)c2)c1O	inconclusive: 20.6 µM [cytotoxic, partial curve, poor fit]	
O=C(c1ccccc1)c1ccc(Oc2ccc([N+](=O)[O-])cc2[N+](=O)[O-])cc1	inconclusive: 29.1 µM [cytotoxic, single point]	
CC(C)Oc1ccc(/C=C(\NC(=O)/C=C/c2ccco2)C(=O)NCCc2nc3ccccc3[nH]2)cc1	inconclusive: 16.4 µM [cytotoxic, partial curve, poor fit]	
CCN1C(=O)C(=Cc2cccc(OC)c2Oc2ccc([N+](=O)[O-])cc2[N+](=O)[O-])SC1=S	active: 23.1 µM	
c1ccc(-c2nc3cc4ccccc4cc3[nH]2)nc1	inconclusive: 25.9 µM [cytotoxic, single point]	
COc1ccc(Cl)cc1N/C(N)=N/c1nc(C)cc(=O)[nH]1	inconclusive: 29.1 µM [cytotoxic, single point]	
COc1cccc(/C=N/Nc2cc(-n3nc(C)cc3-c3ccccc3)ncn2)c1O	inconclusive: 16.4 µM [cytotoxic, partial curve, poor fit]	
O=C1NN=C(c2ccc(Cl)cc2)CC1c1cccc(Cl)c1 (configuration not stated)	inactive	
Cc1ccc(Cn2c(C(=O)O)c(CNCc3cccs3)c3ccc(C)cc32)cc1	inactive	
COC(=O)C[C@H]1C=C[C@H](NC(=O)Nc2ccccc2)[C@@H](CO)O1	inactive	
CCOc1ccc(S(=O)(=O)N(CC(=O)O)c2ccc(C)cc2)cc1	inactive	
CCOC(=O)c1cnc2ccc(C(=O)OC)cc2c1NCCc1ccc(OC)c(OC)c1	inactive	
O=C(CCN1C(=O)c2ccccc2C1=O)N1CCN(c2ccccc2)CC1	inconclusive: 29.1 µM [cytotoxic, single point]	
CS(=O)(=O)N1CCC(C(=O)Nc2cc(C(F)(F)F)ccc2Cl)CC1	inactive	
Cc1cc(OCC(=O)NC2CC(C)(C)NC(C)(C)C2)c2c(C)c(C)c(=O)oc2c1	inconclusive: 16.4 µM [cytotoxic, single point]	
COc1ccc(-c2noc(CCCC(=O)NC3CCCCC3)n2)cc1	inconclusive: 2.91 µM [cytotoxic, partial curve]	
COc1ccc(NC(=O)Nc2cccc3c2O[C@H](CN(C)C(=O)NC2CCCCC2)[C@@H](C)CN([C@H](C)CO)C3=O)cc1	inactive	
CC(=O)c1ccc(S(=O)(=O)Nc2ccc(C(=O)NCC(c3cccs3)N3CCOCC3)cc2)cc1 (configuration not stated)	inconclusive: 29.1 µM [rising, single point]	

SMILES	Potency	activity change, negative = cytotoxic
CCOc1ccc(/C=N/n2c(COc3ccccc3)n[nH]c2=S)cc1OC	inactive	
CCCCC[C@H]1CCCCC[C@@H](O)C[C@H](O)[C@H](O)/C=C/C(=O)O1	inconclusive: 18.4 µM [cytotoxic, single point]	
CCOC(=O)c1ccc(NS(=O)(=O)c2cc(Br)cc3c2N(C(C)=O)C(C)C3)cc1 (configuration not stated)	inconclusive: 20.6 µM [cytotoxic, single point]	
O=C(c1c(O)c2ccccc2oc1=O)C1CCCCC1	inconclusive: 18.4 µM [cytotoxic, single point]	
CCN(CCCNC(=O)c1nn(-c2ccc(OC)c(Cl)c2)c(=O)c2c1c1ccccc1n2C)c1cccc(C)c1	inactive	
CSc1nc2ccc(N3C(=O)C4CCCCC4C3=O)cc2s1 (configuration not stated)	inactive	
COc1ccccc1N1CCN(c2nc3c(S(=O)(=O)c4ccc(C)c(C)c4)nnn3c3ccc(Cl)cc23)CC1	inactive	
O=C(/C=C/c1ccc(O)c(O)c1)c1ccccc1O	inconclusive: 14.6 µM [cytotoxic, partial curve, poor fit]	
CC(c1ccccc1)n1c(SCC(=O)N2CC(=O)Nc3ccccc32)nc2ccccc2c1=O (configuration not stated)	inconclusive: 25.9 µM [cytotoxic, single point]	
CN(C)CC1CCC/C(=C\c2ccc(OC(=O)/C=C/c3ccccc3)cc2)C1=O (configuration not stated)	inconclusive: 18.4 µM [cytotoxic, single point]	
CC1=CC(C)(C)N(S(=O)(=O)c2ccc(C)cc2)c2cc(C)ccc21	active: 3.66 µM	
CSc1ncccc1C(=O)Nc1nc2ccc(F)cc2s1	inconclusive: 29.1 µM [rising, single point]	
Cn1c(=O)c2c(nc(CN3CCc4ccccc4C3)n2Cc2ccccc2F)n(C)c1=O	inconclusive: 16.4 µM [cytotoxic, single point]	
Nc1ccccc1-c1nnc2n1CCCCC2	inactive	
COc1ccc(/C(C)=N/OC/C(O)=C(\C#N)c2nc3ccccc3[nH]2)cc1OC	inconclusive: 18.4 µM [cytotoxic, single point]	
CC(Nc1ccc(Br)cn1)c1cc(Cl)ccc1O (configuration not stated)	inactive	
COc1ccc(S(=O)(=O)Nc2cccc3c2O[C@H](CN(C)Cc2ccncc2)[C@@H](C)CN([C@H](C)CO)C3=O)cc1	inconclusive: 25.9 µM [cytotoxic, single point]	
O=C(c1ccccc1)[C@@H]1[C@@H]2C(=O)N(c3ccc(F)cc3)C(=O)[C@@H]2C2CCCN21 (some centres not stated)	inconclusive: 23.1 µM [cytotoxic, single point]	
C=CCSc1nc(=O)n2cccc(C)c2n1		inconclusive: -30.4% [cytotoxic]
Cc1ccc(Cn2c(C(CO)Nc3nc(-c4ccc(Cl)c([N+](=O)[O-])c4)cs3)nc3ccccc32)cc1 (configuration not stated)	inconclusive: 18.4 µM [cytotoxic, single point]	
O=C(NNC(=S)NC1CCCCC1)c1cccc(S(=O)(=O)Nc2ccccc2Cl)c1	inconclusive: 18.4 µM [cytotoxic, single point]	
O=C(NC(=S)NN1CCCCC1c1cccnc1)c1ccc(Cl)cc1Cl (configuration not stated)	inconclusive: 3.26 µM [rising, partial curve, poor fit]	
O=C1CSC(c2ccc([N+](=O)[O-])cc2)N1C1CCCCC1 (configuration not stated)		inconclusive: 7.1%

SMILES	Potency	activity change, negative = cytotoxic
Cc1ccc(Oc2ccc(NC(=O)Cn3ccsc3=N)cc2)cc1	inconclusive: 29.1 µM [cytotoxic, partial curve, poor fit]	
Cc1ccc(CNC(=O)C2CCC(CNc3nc(=S)[nH]c4ccccc34)CC2)cc1 (configuration not stated)	inconclusive: 18.4 µM [cytotoxic, single point]	
Cc1nn2c(NCc3ccccn3)cc(C(C)(C)C)nc2c1-c1ccccc1	inconclusive: 29.1 µM [cytotoxic, single point]	
Cc1[nH]c2ccccc2c1CCN(Cc1cccs1)C(=S)Nc1ccccc1	inactive	
COc1ccc(NS(=O)(=O)c2ccc3oc(Nc4ccc5c(c4)OCCO5)nc3c2)cc1	inactive	
CCN(CC(=O)Nc1ccc(NC(C)=O)cc1)C(=O)CCCOc1ccc(C(C)(C)C)cc1	inconclusive: 14.6 µM [cytotoxic, single point]	
Cn1c(NC(=O)C2c3ccccc3Oc3ccccc32)cc(=O)n(C)c1=O	inconclusive: 29.1 µM [cytotoxic, single point]	
CSCCC(=O)N1CCN(CC(=O)N2CCCC2)CC1	inactive	
Cc1ccc(OCCn2c(C3CC(=O)N(Cc4ccccc4)C3)nc3ccccc32)cc1 (configuration not stated)	inconclusive: 20.6 µM [cytotoxic, single point]	
O=C(Cc1ccccc1Cl)N1CCOCC1		inconclusive: 38.7%
CCc1nc2c(OCC3CCCCC3)cccn2c1N(C)C(=O)c1ccc(C)cc1	inconclusive: 29.1 µM [cytotoxic, single point]	
CCc1nnc(NC(=O)CSc2nnc(COc3ccc(C)cc3)n2-c2ccccc2)s1	inconclusive: 29.1 µM [cytotoxic, single point]	
Cc1ccccc1C(=O)Nc1ccc2nc(Nc3cccc(C(F)(F)F)c3)cc(C)c2c1	inconclusive: 16.4 µM [cytotoxic, single point]	
O=C(NNS(=O)(=O)c1ccccc1Cl)c1nn(-c2ccc(F)cc2)ccc1=O	inactive	
CCOc1cc(N2CCOCC2)c(OCC)cc1NC(=O)Cc1ccc(OC)c(OC)c1	inconclusive: 29.1 µM [cytotoxic, single point]	
COc1cccc(CNCCc2c[nH]c3ccccc23)c1OCc1ccccc1	inconclusive: 29.1 µM [cytotoxic, single point]	
CCc1cc(C(=O)N/N=C/c2ccc(OC)cc2)c2ccccc2n1	inconclusive: 29.1 µM [cytotoxic, single point]	
COC(=O)c1cccc(Nc2c3c(nc4ccccc24)CCC3)c1	active: 20.6 µM	
Cc1cc2c3c([nH]c2cc1S(=O)(=O)NCCCOC(C)C)CC(C)(C)CC3=O	inconclusive: 23.1 µM [cytotoxic, single point]	
COc1ccc(O)c(/C=N/NC(=O)c2ccc(N3CCCC3=O)cc2)c1	inconclusive: 10.3 µM [cytotoxic, partial curve, poor fit]	
O=C(Nc1nccs1)c1cc(Cl)nc2ccccc12	inconclusive: 29.1 µM [cytotoxic, partial curve, poor fit]	

Complete entries, looked up by structure.
Cc1nn2c(NCc3ccccn3)cc(C(C)(C)C)nc2c1-c1ccccc1 in the list: Potency: inconclusive: 29.1 µM [cytotoxic, single point]
Cn1c(NC(=O)C2c3ccccc3Oc3ccccc32)cc(=O)n(C)c1=O in the list: Potency: inconclusive: 29.1 µM [cytotoxic, single point]
Cc1ccccc1C(=O)Nc1ccc2nc(Nc3cccc(C(F)(F)F)c3)cc(C)c2c1 in the list: Potency: inconclusive: 16.4 µM [cytotoxic, single point]
COc1ccc(NS(=O)(=O)c2ccc3oc(Nc4ccc5c(c4)OCCO5)nc3c2)cc1 in the list: Potency: inactive
